In the supplement of paper PMC4604168 (melanoma cell lines):
The list shows a part of the results. Single values are uncertain, as repeats are few or missing.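 The apoptosis fraction was the count of cleaved-PARP antibody-stained nuclei relative to all DNA-stained nuclei, imaged in 1,536-well plates. Screening doses were set so most cells survived, and baseline and induced cleaved-PARP levels vary greatly across cell lines.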

Assays:
Experiment in all cases: cleaved PARP positive nuclei fraction relative to DMSO control; melanoma cells; higher = more apoptosis
Details in all cases: library dose: low library concentration; 72 h
[1] = test system: 501Mel
[2] = test system: A101D
[3] = test system: A2058
[4] = test system: A375
[5] = test system: C32
[6] = test system: CBRC008 (line from a melanoma biopsy)
[7] = test system: CBRC013 (line from a melanoma biopsy)
[8] = test system: CBRC014 (line from a melanoma biopsy)
[9] = test system: CBRC016 (line from a melanoma biopsy)
[10] = test system: CBRC017 (line from a melanoma biopsy)
[11] = test system: COLO792
[12] = test system: COLO800
[13] = test system: COLO829
[14] = test system: G361
[15] = test system: IPC-298
[16] = test system: IST-MEL1
[17] = test system: LB2518-MEL
[18] = test system: LOXIMVI
[19] = test system: MEL-HO

Row | Compound | cleaved PARP positive nuclei fraction [1] [%] | cleaved PARP positive nuclei fraction [2] [%] | cleaved PARP positive nuclei fraction [3] [%] | cleaved PARP positive nuclei fraction [4] [%] | cleaved PARP positive nuclei fraction [5] [%] | cleaved PARP positive nuclei fraction [6] [%] | cleaved PARP positive nuclei fraction [7] [%] | cleaved PARP positive nuclei fraction [8] [%] | cleaved PARP positive nuclei fraction [9] [%] | cleaved PARP positive nuclei fraction [10] [%] | cleaved PARP positive nuclei fraction [11] [%] | cleaved PARP positive nuclei fraction [12] [%] | cleaved PARP positive nuclei fraction [13] [%] | cleaved PARP positive nuclei fraction [14] [%] | cleaved PARP positive nuclei fraction [15] [%] | cleaved PARP positive nuclei fraction [16] [%] | cleaved PARP positive nuclei fraction [17] [%] | cleaved PARP positive nuclei fraction [18] [%] | cleaved PARP positive nuclei fraction [19] [%]
1 | Cn1sc(=O)n(Cc2ccccc2)c1=O + CN(NC(=O)CC(=O)NN(C)C(=S)c1ccccc1)C(=S)c1ccccc1 [STA4783] (first compound 0.4 µM, partner dose 0.006 µM) | 234 | 88.4 | 119 | 4570 | 623 | 1980 | 101 | 556 | 281 | 528 | 125 | 53.4 | 104 | 97.4 | 94.5 | 258 | 241 | 337 | 146
2 | NC1(c2ccc(-c3nc4ccn5c(=O)[nH]nc5c4cc3-c3ccccc3)cc2)CCC1 + COc1cc2c(Oc3ccc4[nH]c(C)cc4c3F)ncnc2cc1OCCCN1CCCC1 [cediranib] (first compound 0.4 µM, partner dose 0.4 µM) | 105 | 56.4 | 101 | 52 | 119 | 108 | 128 | 71.8 | 96.5 | 82.9 | 182 | 25.8 | 127 | 53.6 | 132 | 111 | 48.2 | 86.7 | 268
3 | COc1ccc(C2=N[C@@H](c3ccc(Cl)cc3)[C@@H](c3ccc(Cl)cc3)N2C(=O)N2CCNC(=O)C2)c(OC(C)C)c1 [Nutlin-3] + C=CCn1c(=O)c2cnc(Nc3ccc(N4CCN(C)CC4)cc3)nc2n1-c1cccc(C(C)(C)O)n1 [MK1775] (first compound 0.1 µM, partner dose 0.02 µM) | 100 | 52.6 | 93.9 | 218 | 125 | 51.3 | 118 | 102 | 77.7 | 99.9 | 78.2 | 110 | 111 | 68.6 | 138 | 156 | 111 | 53.9 | 66.6
4 | CC(=O)O[C@@]12CO[C@@H]1C[C@H](O)[C@@]1(C)C(=O)[C@H](O)C3=C(C)[C@@H](OC(=O)[C@H](O)[C@@H](NC(=O)OC(C)(C)C)c4ccccc4)C[C@@](O)([C@@H](OC(=O)c4ccccc4)[C@H]21)C3(C)C [Docetaxel] + COc1cc(Nc2ncc(F)c(Nc3ccc4c(n3)NC(=O)C(C)(C)O4)n2)cc(OC)c1OC [Tamatinib] (first compound 0.0001 µM, partner dose 0.4 µM) | 395 | 124 | 14600 | 7040 | 303 | 1150 | 98.7 | 181 | 636 | 218 | 2190 | 202 | 316 | 524 | 283 | 402 | 218 | 223 | 150
5 | CC1(C)CCC(c2ccc(Cl)cc2)=C(CN2CCN(c3ccc(C(=O)NS(=O)(=O)c4ccc(N[C@H](CCN5CCOCC5)CSc5ccccc5)c(S(=O)(=O)C(F)(F)F)c4)cc3)CC2)C1 + C=CCn1c(=O)c2cnc(Nc3ccc(N4CCN(C)CC4)cc3)nc2n1-c1cccc(C(C)(C)O)n1 [MK1775] (first compound 0.4 µM, partner dose 0.02 µM) | 387 | 297 | 60.8 | 997 | 697 | 798 | 395 | 422 | 438 | 329 | 261 | 45.5 | 174 | 310 | 94 | 253 | 50.4 | 39.8 | 194
6 | CCCCCCCCc1ccc(CCC(N)(CO)CO)cc1 [fingolimod] + CO[C@@H]1[C@H](N(C)C(=O)c2ccccc2)C[C@H]2O[C@]1(C)n1c3ccccc3c3c4c(c5c6ccccc6n2c5c31)C(=O)NC4 [Midostaurin] (first compound 2 µM, partner dose 0.08 µM) | 107 | 188 | 75.5 | 95.4 | 64.8 | 107 | 77.2 | 101 | 79.2 | 158 | 64.4 | 50.1 | 56.1 | 109 | 47.4 | 192 | 26.6 | 142 | 49.5
7 | CS(=O)(=O)c1ccc(C(=O)Nc2ccc(Cl)c(-c3ccccn3)c2)c(Cl)c1 [vismodegib] + CC(C)(C)c1cnc(CSc2cnc(NC(=O)C3CCNCC3)s2)o1 [SNS-032] (first compound 1 µM, partner dose 0.01 µM) | 137 | 79.2 | 57.9 | 73.8 | 39.8 | 56.4 | 174 | 97.1 | 44.8 | 72.6 | 80.7 | 43.6 | 77.7 | 59.2 | 240 | 190 | 53.5 | 45.7 | 57.9
8 | CC(=O)O[C@@]12CO[C@@H]1C[C@H](O)[C@@]1(C)C(=O)[C@H](O)C3=C(C)[C@@H](OC(=O)[C@H](O)[C@@H](NC(=O)OC(C)(C)C)c4ccccc4)C[C@@](O)([C@@H](OC(=O)c4ccccc4)[C@H]21)C3(C)C [Docetaxel] + CC(C)(C)c1cnc(CSc2cnc(NC(=O)C3CCNCC3)s2)o1 [SNS-032] (first compound 0.0001 µM, partner dose 0.01 µM) | 312 | 105 | 5400 | 1280 | 350 | 228 | 89.2 | 146 | 164 | 119 | 328 | 77.4 | 205 | 785 | 127 | 297 | 129 | 112 | 218
9 | COc1ccc(C2=N[C@@H](c3ccc(Cl)cc3)[C@@H](c3ccc(Cl)cc3)N2C(=O)N2CCNC(=O)C2)c(OC(C)C)c1 [Nutlin-3] + Cn1cncc1[C@@](N)(c1ccc(Cl)cc1)c1ccc2c(c1)c(-c1cccc(Cl)c1)cc(=O)n2C [tipifarnib] (first compound 0.1 µM, partner dose 0.01 µM) | 47.3 | 321 | 146 | 146 | 232 | 208 | 56.7 | 118 | 144 | 116 | 135 | 221 | 87.4 | 124 | 95.3 | 167 | 123 | 75.6 | 63.3
10 | CN(c1ncccc1CNc1nc(Nc2ccc3c(c2)CC(=O)N3)ncc1C(F)(F)F)S(C)(=O)=O + C[C@@H]1CCN(C(=O)CC#N)C[C@@H]1N(C)c1ncnc2[nH]ccc12 [CP690550] (first compound 0.08 µM, partner dose 1 µM) | 91.7 | 40.3 | 134 | 80.4 | 267 | 75.1 | 108 | 81.3 | 87.6 | 74.1 | 150 | 23.3 | 112 | 74.3 | 182 | 66.4 | 204 | 142 | 141
11 | COc1ccc(C2=N[C@@H](c3ccc(Cl)cc3)[C@@H](c3ccc(Cl)cc3)N2C(=O)N2CCNC(=O)C2)c(OC(C)C)c1 [Nutlin-3] + C[C@@H]1CCN(C(=O)CC#N)C[C@@H]1N(C)c1ncnc2[nH]ccc12 [CP690550] (first compound 0.1 µM, partner dose 1 µM) | 78 | 93 | 217 | 20.9 | 89.4 | 173 | 110 | 83.3 | 57.5 | 110 | 87.6 | 8.63 | 38.3 | 62.9 | 90.3 | 111 | 104 | 16.4 | 46.9
12 | CC(=O)O[C@@]12CO[C@@H]1C[C@H](O)[C@@]1(C)C(=O)[C@H](O)C3=C(C)[C@@H](OC(=O)[C@H](O)[C@@H](NC(=O)OC(C)(C)C)c4ccccc4)C[C@@](O)([C@@H](OC(=O)c4ccccc4)[C@H]21)C3(C)C [Docetaxel] + NCC(=O)Nc1ccc(-n2nc(C(F)(F)F)cc2-c2ccc3c(ccc4ccccc43)c2)cc1 [OSU03012] (first compound 0.0001 µM, partner dose 1 µM) | 389 | 121 | 4920 | 6310 | 571 | 379 | 124 | 143 | 107 | 166 | 1100 | 245 | 183 | 292 | 128 | 139 | 139 | 196 | 105
13 | CCN(CC)CCNC(=O)c1c(C)[nH]c(/C=C2\C(=O)Nc3ccc(F)cc32)c1C [sunitinib] + CN(NC(=O)CC(=O)NN(C)C(=S)c1ccccc1)C(=S)c1ccccc1 [STA4783] (first compound 0.4 µM, partner dose 0.006 µM) | 149 | 126 | 84.7 | 339 | 173 | 1520 | 304 | 455 | 134 | 306 | 109 | 116 | 44.1 | 139 | 162 | 82.4 | 139 | 40.8 | 42.6
14 | Cn1cnc2c(F)c(Nc3ccc(Br)cc3Cl)c(C(=O)NOCCO)cc21 [selumetinib] + CO[C@@H]1[C@H](N(C)C(=O)c2ccccc2)C[C@H]2O[C@]1(C)n1c3ccccc3c3c4c(c5c6ccccc6n2c5c31)C(=O)NC4 [Midostaurin] (first compound 0.015 µM, partner dose 0.08 µM) | 97.4 | 94.3 | 99.4 | 85.1 | 110 | 266 | 135 | 91.7 | 250 | 117 | 147 | 24 | 101 | 187 | 116 | 1000 | 138 | 17.2 | 75.5
15 | NC(=O)c1ccc(N(C(N)=O)c2c(F)cccc2F)nc1-c1ccc(F)cc1F + C[C@@H]1CCN(C(=O)CC#N)C[C@@H]1N(C)c1ncnc2[nH]ccc12 [CP690550] (first compound 0.4 µM, partner dose 1 µM) | 66 | 81.7 | 99.7 | 73.5 | 135 | 198 | 103 | 83.8 | 83.7 | 91.7 | 88.7 | 86.5 | 63.2 | 108 | 88.3 | 133 | 82.2 | 38.1 | 60.5
16 | CCN(CC)CCNC(=O)c1c(C)[nH]c(/C=C2\C(=O)Nc3ccc(F)cc32)c1C [sunitinib] + C[C@@H]1CCN(C(=O)CC#N)C[C@@H]1N(C)c1ncnc2[nH]ccc12 [CP690550] (first compound 0.4 µM, partner dose 1 µM) | 85 | 71.3 | 258 | 290 | 151 | 63.2 | 290 | 70.8 | 69.6 | 84.8 | 19.9 | 37.6 | 161 | 120 | 168 | 256 | 192 | 27 | 233

For convenience, some entries already given:
Row | Compound | cleaved PARP positive nuclei fraction [1] [%] | cleaved PARP positive nuclei fraction [2] [%] | cleaved PARP positive nuclei fraction [3] [%] | cleaved PARP positive nuclei fraction [4] [%] | cleaved PARP positive nuclei fraction [5] [%] | cleaved PARP positive nuclei fraction [6] [%] | cleaved PARP positive nuclei fraction [7] [%] | cleaved PARP positive nuclei fraction [8] [%] | cleaved PARP positive nuclei fraction [9] [%] | cleaved PARP positive nuclei fraction [10] [%] | cleaved PARP positive nuclei fraction [11] [%] | cleaved PARP positive nuclei fraction [12] [%] | cleaved PARP positive nuclei fraction [13] [%] | cleaved PARP positive nuclei fraction [14] [%] | cleaved PARP positive nuclei fraction [15] [%] | cleaved PARP positive nuclei fraction [16] [%] | cleaved PARP positive nuclei fraction [17] [%] | cleaved PARP positive nuclei fraction [18] [%] | cleaved PARP positive nuclei fraction [19] [%]
12 | CC(=O)O[C@@]12CO[C@@H]1C[C@H](O)[C@@]1(C)C(=O)[C@H](O)C3=C(C)[C@@H](OC(=O)[C@H](O)[C@@H](NC(=O)OC(C)(C)C)c4ccccc4)C[C@@](O)([C@@H](OC(=O)c4ccccc4)[C@H]21)C3(C)C [Docetaxel] + NCC(=O)Nc1ccc(-n2nc(C(F)(F)F)cc2-c2ccc3c(ccc4ccccc43)c2)cc1 [OSU03012] (first compound 0.0001 µM, partner dose 1 µM) | 389 | 121 | 4920 | 6310 | 571 | 379 | 124 | 143 | 107 | 166 | 1100 | 245 | 183 | 292 | 128 | 139 | 139 | 196 | 105
13 | CCN(CC)CCNC(=O)c1c(C)[nH]c(/C=C2\C(=O)Nc3ccc(F)cc32)c1C [sunitinib] + CN(NC(=O)CC(=O)NN(C)C(=S)c1ccccc1)C(=S)c1ccccc1 [STA4783] (first compound 0.4 µM, partner dose 0.006 µM) | 149 | 126 | 84.7 | 339 | 173 | 1520 | 304 | 455 | 134 | 306 | 109 | 116 | 44.1 | 139 | 162 | 82.4 | 139 | 40.8 | 42.6
